PubChem BioAssay AID1224829, NIAID, 2016
In all, the deposit lists about 3,800 reagents; shown is a part drawn at random. 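Calls cover raised and lowered translocation; gene median uses one vendor's three siRNAs; qiagen siRNAs acted more weakly than ambion siRNAs.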 Unmarked entries are inactive.

- Aim: 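Genes needed for LPS-driven NF-kappaB p65 nuclear entry in mouse macrophages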 (follow-up of hits)
- Cells: mouse RAW264.7 G9 macrophage reporter cells
- Reagents: single siRNA against mouse genes, 100 nM
- Timing: 2 days of siRNA knock-down, then 40 min of LPS before fixing
- Treatment: LPS (Salmonella minnesota R595) at 10 ng/ml
- Measurement: 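Imaging of GFP-p65 after 40 min of LPS; nuclear over perinuclear ring intensity ratio, scaled to plate median and non-targeting control wells, given as z-score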
- Direction: p65 translocation z-score and gene median z-score, per vendor: higher = more nuclear NF-kappaB p65 after LPS
- Hit rule: 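Active means the replicate-mean z-score lies beyond plus or minus 2, in either direction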
- Calls: active = changed p65 translocation (either direction); inactive = no clear change

gene symbol | PubChem SID | siRNA vendor or control pool | p65 translocation z-score, replicate mean | p65 translocation z-score, replicate 1 | p65 translocation z-score, replicate 2 | gene median z-score, per vendor
Xpa | SID315485100 | ambion single siRNA | -0.732 | -0.0395 | -1.42 | -0.776
Xpa | SID315485101 | ambion single siRNA | -1.23 | -1.17 | -1.3 | -0.776
Xpa | SID315485102 | ambion single siRNA | -0.347 | -0.383 | -0.311 | -0.776
Xpa | SID315485103 | qiagen single siRNA | 1.28 | 0.0237 | 2.55 | 0.589
Xpa | SID315485104 | qiagen single siRNA | 0.433 | 1.03 | -0.161 | 0.589
Xpa | SID315485105 | qiagen single siRNA | 0.589 | 0.589 | – | 0.589
Hdac4 | SID315488052 | ambion single siRNA | -3.5 (active) | -3.34 | -3.66 | -4.04
Hdac4 | SID315488053 | ambion single siRNA | -4.04 (active) | -4.04 | – | -4.04
Hdac4 | SID315488054 | ambion single siRNA | -6.83 (active) | -8.19 | -5.48 | -4.04
Hdac4 | SID315488055 | qiagen single siRNA | -2.43 (active) | -1.47 | -3.4 | -3.4
Hdac4 | SID315488056 | qiagen single siRNA | -1.11 | -1.11 | – | -3.4
Hdac4 | SID315488057 | qiagen single siRNA | -4.31 (active) | -4.08 | -4.55 | -3.4
Plekho2 | SID315487437 | ambion single siRNA | 1.12 | 2.02 | 0.214 | 0.634
Plekho2 | SID315487438 | ambion single siRNA | 1.16 | 1.05 | 1.27 | 0.634
Plekho2 | SID315487439 | ambion single siRNA | -2.67 (active) | -2.79 | -2.54 | 0.634
Plekho2 | SID315487440 | qiagen single siRNA | 1.15 | 1.19 | 1.12 | 0.565
Plekho2 | SID315487441 | qiagen single siRNA | 0.565 | 0.565 | – | 0.565
Plekho2 | SID315487442 | qiagen single siRNA | -1.87 | -2.21 | -1.53 | 0.565
Slc9a8 | SID315486855 | ambion single siRNA | -2.93 (active) | -4.23 | -1.63 | -4.29
Slc9a8 | SID315486856 | ambion single siRNA | -6.58 (active) | -7.57 | -5.59 | -4.29
Slc9a8 | SID315486857 | ambion single siRNA | -3.53 (active) | -4.35 | -2.71 | -4.29
Slc9a8 | SID315486858 | qiagen single siRNA | -0.213 | -0.291 | -0.135 | 0.838
Slc9a8 | SID315486859 | qiagen single siRNA | 2.68 (active) | 2.62 | 2.74 | 0.838
Slc9a8 | SID315486860 | qiagen single siRNA | 0.499 | -0.813 | 1.81 | 0.838

Ordered by “p65 translocation z-score, replicate 1” (low to high): some entries from above.
gene symbol | PubChem SID | siRNA vendor or control pool | p65 translocation z-score, replicate mean | p65 translocation z-score, replicate 1 | p65 translocation z-score, replicate 2 | gene median z-score, per vendor
Plekho2 | SID315487439 | ambion single siRNA | -2.67 (active) | -2.79 | -2.54 | 0.634
Plekho2 | SID315487438 | ambion single siRNA | 1.16 | 1.05 | 1.27 | 0.634
Plekho2 | SID315487440 | qiagen single siRNA | 1.15 | 1.19 | 1.12 | 0.565
Plekho2 | SID315487437 | ambion single siRNA | 1.12 | 2.02 | 0.214 | 0.634
